PubChem BioAssay AID1224830 | NIAID | 2016

Assay: 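Host factors that control LPS-induced TNF expression in human macrophages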 (primary screen)
Cells: human THP-1 monocytic leukaemia cells, TNF dual-luciferase reporter clone, PMA-differentiated to macrophage-like cells
Knock-down reagent: siRNA pool against human genes, 50 nM
Duration: LPS for 4 h, given about 3 days after siRNA transfection
Conditions: bacterial LPS (TLR4 ligand), 10 ng/ml
Detection: 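Ratio of firefly to renilla light, scaled to the plate median and expressed as a robust z-score per replicate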
Scale: TNF reporter robust z-score: higher = stronger TNF reporter response to LPS
Call rule: 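Each well counts as active if its z-score is over 2.8 or under -1.5; controls are left without a call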
The whole screen tested about 18,000 reagents; shown is a random part of them. About 2,900 of them (16%) were called active. 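Calls are made per well; low scores hint the gene aids the LPS response, high scores that it dampens it.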 Entries without a mark were called inactive. Repeated entries: four replicate wells of each siRNA pool. Reagent sequences are not shown.

no.	target gene	TNF reporter robust z-score
1	NEU3	2.26
2	NEU3	4.88 (active)
3	NEU3	4.4 (active)
4	NEU3	5.41 (active)
5	TOGARAM2	0.87
6	TOGARAM2	1.1
7	TOGARAM2	2.33
8	TOGARAM2	2.05
9	PARL	-0.79
10	PARL	0.05
11	PARL	-0.19
12	PARL	-0.3
13	RIMS1	1.44
14	RIMS1	2.14
15	RIMS1	0.13
16	RIMS1	2.02
17	H2AC20	1.03
18	H2AC20	0.58
19	H2AC20	-0.07
20	H2AC20	0.97
21	PLP2	0.19
22	PLP2	0.35
23	PLP2	1.04
24	PLP2	0.06
25	CCN1	-0.45
26	CCN1	0.43
27	CCN1	-1.1
28	CCN1	-0.28
29	OR52I2	0.71
30	OR52I2	1.25
31	OR52I2	2
32	OR52I2	-0.04
33	LATS2	-0.05
34	LATS2	0.73
35	LATS2	0.94
36	LATS2	1.1
37	LILRA5	-0.67
38	LILRA5	-0.62
39	LILRA5	-1.05
40	LILRA5	-1.11
41	MSMB	-0.66
42	MSMB	-0.34
43	MSMB	0.05
44	MSMB	0.38
45	PWWP3B	0.42
46	PWWP3B	-0.23
47	PWWP3B	0.91
48	PWWP3B	-0.27
49	COL18A1	-0.93
50	COL18A1	-0.66
51	COL18A1	-0.81
52	COL18A1	0.03
53	GABARAPL2	-1.16
54	GABARAPL2	-1.39
55	GABARAPL2	-1.2
56	GABARAPL2	-1.05
57	SENP8	-0.2
58	SENP8	-0.4
59	SENP8	0.37
60	SENP8	0.11

Sorted by “TNF reporter robust z-score” (high to low): some entries from above.
target gene	TNF reporter robust z-score
LATS2	1.1
LATS2	0.94
PWWP3B	0.91
LATS2	0.73
PWWP3B	0.42
MSMB	0.38
MSMB	0.05
PWWP3B	-0.23
PWWP3B	-0.27
MSMB	-0.34
LILRA5	-0.62
MSMB	-0.66
LILRA5	-0.67
COL18A1	-0.93
LILRA5	-1.05
LILRA5	-1.11

Further entries follow:
no.	target gene	TNF reporter robust z-score
61	FCER1A	1.17
62	FCER1A	2.58
63	FCER1A	1.5
64	FCER1A	2.78
65	PLCD1	0.21
66	PLCD1	2.5
67	PLCD1	0.85
68	PLCD1	1.59
69	GSDMD	-0.67
70	GSDMD	-1.69 (active)
71	GSDMD	-1.54 (active)
72	GSDMD	-0.54
73	CXorf58	-0.78
74	CXorf58	-0.76
75	CXorf58	-1.33
76	CXorf58	-1.04
77	GBP6	-0.17
78	GBP6	-0.83
79	GBP6	-0.28
80	GBP6	-0.98
81	ZP1	0.64
82	ZP1	4 (active)
83	ZP1	0.88
84	ZP1	2.22
85	KRTAP21-1	0.93
86	KRTAP21-1	0.33
87	KRTAP21-1	0.41
88	KRTAP21-1	-0.2
89	JADE2	0.14
90	JADE2	0.6
91	JADE2	-0.31
92	JADE2	0.21
93	DTL	0.51
94	DTL	-0.15
95	DTL	0.12
96	DTL	0.29
97	ICOSLG	0.05
98	ICOSLG	-1.27
99	ICOSLG	0.1
100	ICOSLG	-1
101	GP5	1.78
102	GP5	2.57
103	GP5	2.56
104	GP5	0.65
105	MYO1F	-1.44
106	MYO1F	-1.19
107	MYO1F	-1.27
108	MYO1F	-1.11
109	KIAA0319	-0.28
110	KIAA0319	0.16
111	KIAA0319	-0.08
112	KIAA0319	0.77
